Data reported in paper doi:10.1101/640771 (bioRxiv, 2019).
These are yes or no findings as the source states them, for the method shown. Binding seen in cells or lysates may run through a third protein. Some results given as binding are weak or reduced against the parent protein; the word gives no strength. Sequences can lack the tags named with a protein.

Target: T1, YfgM-ALFA (C-terminally ALFA-tagged YfgM) (E. coli) (UniProt P76576)
T1 sequence: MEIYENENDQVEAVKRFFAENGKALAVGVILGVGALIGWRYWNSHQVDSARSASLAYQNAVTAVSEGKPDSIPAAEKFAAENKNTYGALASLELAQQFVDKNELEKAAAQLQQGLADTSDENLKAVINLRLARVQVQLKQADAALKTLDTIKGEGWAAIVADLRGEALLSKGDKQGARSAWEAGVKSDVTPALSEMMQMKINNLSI
Assay: co-IP

B1: PpiD (protein, UniProt P0ADY1 1-623)
chain: MMDSLRTAANSLVLKIIFGIIIVSFILTGVSGYLIGGGNNYAAKVNDQEISRGQFENAFNSERNRMQQQLGDQYSELAANEGYMKTLRQQVLNRLIDEALLDQYARELKLGISDEQVKQAIFATPAFQVDGKFDNSRYNGILNQMGMTADQYAQALRNQLTTQQLINGVAGTDFMLKGETDELAALVAQQRVVREATIDVNALAAKQPVTEQEIASYYEQNKNNFMTPEQFRVSYIKLDAATMQQPVSDADIQSYYDQHQDQFTQPQRTRYSIIQTKTEDEAKAVLDELNKGGDFAALAKEKSADIISARNGGDMGWLEDATIPDELKNAGLKEKGQLSGVIKSSVGFLIVRLDDIQPAKVKSLDEVRDDIAAKVKHEKALDAYYALQQKVSDAASNDTESLAGAEQAAGVKATQTGWFSKDNLPEELNFKPVADAIFNGGLVGENGAPGINSDIITVDGDRAFVLRISEHKPEAVKPLADVQEQVKALVQHNKAEQQAKVDAEKLLVDLKAGKGAEAMQAAGLKFGEPKTLSRSGRDPISQAAFALPLPAKDKPSYGMATDMQGNVVLLALDEVKQGSMPEDQKKAMVQGITQNNAQIVFEALMSNLRKEAKIKIGDALEQQ
binding: binds
